Data published in patent US6617350B2, “Inhibitors of aspartyl protease” (priority 1999, dated 2003).
Some results were stated once for a whole list of compounds, not compound by compound.

These compounds were tested against HIV-1 protease (Human immunodeficiency virus type 1 group M subtype B, UniProt P04585). Conditions: class symbol, read-out: Ki (activity range).
Type: biochemical

Row | SMILES | Ki [nM]
1 | CC(=O)NCC(=O)NCCC(C)(C)CN(CC(O)C(Cc1ccccc1)NC(=O)OC1COC2OCCC12)S(=O)(=O)c1ccc2c(c1)OCO2 (stereo not shown) [Compound 523] | < 1
2 | CC(C)(CCNC(=O)CNS(C)(=O)=O)CN(CC(O)C(Cc1ccccc1)NC(=O)OC1COC2OCCC12)S(=O)(=O)c1ccc2c(c1)OCO2 (stereo not shown) [Compound 528] | < 1
3 | CN(C)C(=O)NCC(=O)NCCC(C)(C)CN(CC(O)C(Cc1ccccc1)NC(=O)OC1COC2OCCC12)S(=O)(=O)c1ccc2c(c1)OCO2 (stereo not shown) [Compound 526] | < 1
4 | CC(C)(CCCCN)CN(CC(O)[C@H](Cc1ccccc1)NC(=O)OC1CCOC1)S(=O)(=O)c1ccc(N)cc1 (stereo partly drawn) [Compound 296, (3S)-tetrahydro-3-furanyl N-(1S,2R)-3-[(4-aminophenylsulfonyl)(6-amino-2,2-dimethylhexyl)amino]-1-benzyl-2-hydroxypropylcarbamate] | < 1
5 | CC(C)(CCNC(=O)CCC1CCCC1)CN(C[C@@H](O)[C@H](Cc1ccccc1)NC(=O)O[C@H]1CO[C@H]2OCC[C@H]21)S(=O)(=O)c1ccc2c(c1)OCO2 [Compound 402] | < 1
6 | CC(C)(CCCCN)CN(CC(O)[C@H](Cc1ccccc1)NC(=O)OC1COCOC1)S(=O)(=O)c1ccc2c(c1)OCO2 (stereo partly drawn) [Compound 297, [1,3]-dioxan-5-yl N-(1S,2R)-3-[(1,3-benzodioxol-5-ylsulfonyl)(6-amino-2,2-dimethylhexyl)amino]-1-benzyl-2-hydroxypropylcarbamate] | < 1
7 | CN(C)C(=O)NCC(=O)NCCCCC(C)(C)CN(CC(O)C(Cc1ccccc1)NC(=O)OC1COC2OCCC12)S(=O)(=O)c1ccc2c(c1)OCO2 (stereo not shown) [Compound 540] | < 1
8 | CC(C)(CCNC(=O)CN)CN(CC(O)C(Cc1ccccc1)NC(=O)OC1COC2OCCC12)S(=O)(=O)c1ccc2c(c1)OCO2 [Compound 520, (3R,3aS,6aR)hexahydrofuro[2,3-b]furan-3-yl N-(1S,2R)-3-[(4-[(amino)acetylamino]-2,2-dimethylbutyl)(1,3-benzodioxol-5-ylsulfonyl)amino]-1-benzyl-2-hydroxypropylcarbamate] | < 1
9 | CC(C)(CCCCNC(=O)CNS(C)(=O)=O)CN(CC(O)C(Cc1ccccc1)NC(=O)OC1COC2OCCC12)S(=O)(=O)c1ccc2c(c1)OCO2 (stereo not shown) [Compound 542] | < 1
10 | CC(C)(CCOC(=O)NO)CN(CC(O)C(Cc1ccccc1)NC(=O)OC1COC2OCCC12)S(=O)(=O)c1ccc2c(c1)OCO2 (stereo not shown) [Compound 605] | < 1
11 | CN(C)C(=NC#N)NCCC(C)(C)CN(CC(O)C(Cc1ccccc1)NC(=O)OC1COC2OCCC12)S(=O)(=O)c1ccc2c(c1)OCO2 (stereo not shown) [Compound 563] | < 1
12 | COCC(=O)NCC(=O)NCCC(C)(C)CN(CC(O)C(Cc1ccccc1)NC(=O)OC1COC2OCCC12)S(=O)(=O)c1ccc2c(c1)OCO2 (stereo not shown) [Compound 527] | < 1
13 | CC(C)(CCCCN)CN(C[C@@H](O)[C@H](Cc1ccccc1)NC(=O)O[C@H]1CCOC1)S(=O)(=O)c1ccc2c(c1)OCO2 [Compound 295, (3S)-tetrahydro-3-furanyl N-(1S,2R)-3-[(1,3-benzodioxol-5-ylsulfonyl)(6-amino-2,2-dimethylhexyl)amino]-1-benzyl-2-hydroxypropylcarbamate] | < 1
